Results as given in publication PMC2965115.
Like-named read-outs stand apart in the source and are kept apart here. No constants are given. Whether binding was seen depends on the method and setting. Binding seen in cells or lysates may run through a third protein. These calls come from enrichment with a bait or labelling near it, and not all partners need be listed. For some assays here: No binding means not detected with the bait.

Chains of the proteins cited; added tags and fusions are not shown. Lines headed by an entry give the natural chain unless they say otherwise; changes in a name come on top.
UniProt P90916: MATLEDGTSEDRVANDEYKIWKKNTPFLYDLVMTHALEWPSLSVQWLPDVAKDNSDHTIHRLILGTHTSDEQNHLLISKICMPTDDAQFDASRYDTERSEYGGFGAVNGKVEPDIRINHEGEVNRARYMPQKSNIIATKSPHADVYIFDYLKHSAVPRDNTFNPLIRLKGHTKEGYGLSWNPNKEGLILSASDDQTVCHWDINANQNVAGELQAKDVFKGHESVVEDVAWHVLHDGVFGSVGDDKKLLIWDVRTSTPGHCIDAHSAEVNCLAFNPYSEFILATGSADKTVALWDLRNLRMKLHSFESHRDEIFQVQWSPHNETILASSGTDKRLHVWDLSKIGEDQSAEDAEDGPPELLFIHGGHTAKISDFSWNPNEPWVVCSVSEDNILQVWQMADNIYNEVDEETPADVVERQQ
UniProt Q22516: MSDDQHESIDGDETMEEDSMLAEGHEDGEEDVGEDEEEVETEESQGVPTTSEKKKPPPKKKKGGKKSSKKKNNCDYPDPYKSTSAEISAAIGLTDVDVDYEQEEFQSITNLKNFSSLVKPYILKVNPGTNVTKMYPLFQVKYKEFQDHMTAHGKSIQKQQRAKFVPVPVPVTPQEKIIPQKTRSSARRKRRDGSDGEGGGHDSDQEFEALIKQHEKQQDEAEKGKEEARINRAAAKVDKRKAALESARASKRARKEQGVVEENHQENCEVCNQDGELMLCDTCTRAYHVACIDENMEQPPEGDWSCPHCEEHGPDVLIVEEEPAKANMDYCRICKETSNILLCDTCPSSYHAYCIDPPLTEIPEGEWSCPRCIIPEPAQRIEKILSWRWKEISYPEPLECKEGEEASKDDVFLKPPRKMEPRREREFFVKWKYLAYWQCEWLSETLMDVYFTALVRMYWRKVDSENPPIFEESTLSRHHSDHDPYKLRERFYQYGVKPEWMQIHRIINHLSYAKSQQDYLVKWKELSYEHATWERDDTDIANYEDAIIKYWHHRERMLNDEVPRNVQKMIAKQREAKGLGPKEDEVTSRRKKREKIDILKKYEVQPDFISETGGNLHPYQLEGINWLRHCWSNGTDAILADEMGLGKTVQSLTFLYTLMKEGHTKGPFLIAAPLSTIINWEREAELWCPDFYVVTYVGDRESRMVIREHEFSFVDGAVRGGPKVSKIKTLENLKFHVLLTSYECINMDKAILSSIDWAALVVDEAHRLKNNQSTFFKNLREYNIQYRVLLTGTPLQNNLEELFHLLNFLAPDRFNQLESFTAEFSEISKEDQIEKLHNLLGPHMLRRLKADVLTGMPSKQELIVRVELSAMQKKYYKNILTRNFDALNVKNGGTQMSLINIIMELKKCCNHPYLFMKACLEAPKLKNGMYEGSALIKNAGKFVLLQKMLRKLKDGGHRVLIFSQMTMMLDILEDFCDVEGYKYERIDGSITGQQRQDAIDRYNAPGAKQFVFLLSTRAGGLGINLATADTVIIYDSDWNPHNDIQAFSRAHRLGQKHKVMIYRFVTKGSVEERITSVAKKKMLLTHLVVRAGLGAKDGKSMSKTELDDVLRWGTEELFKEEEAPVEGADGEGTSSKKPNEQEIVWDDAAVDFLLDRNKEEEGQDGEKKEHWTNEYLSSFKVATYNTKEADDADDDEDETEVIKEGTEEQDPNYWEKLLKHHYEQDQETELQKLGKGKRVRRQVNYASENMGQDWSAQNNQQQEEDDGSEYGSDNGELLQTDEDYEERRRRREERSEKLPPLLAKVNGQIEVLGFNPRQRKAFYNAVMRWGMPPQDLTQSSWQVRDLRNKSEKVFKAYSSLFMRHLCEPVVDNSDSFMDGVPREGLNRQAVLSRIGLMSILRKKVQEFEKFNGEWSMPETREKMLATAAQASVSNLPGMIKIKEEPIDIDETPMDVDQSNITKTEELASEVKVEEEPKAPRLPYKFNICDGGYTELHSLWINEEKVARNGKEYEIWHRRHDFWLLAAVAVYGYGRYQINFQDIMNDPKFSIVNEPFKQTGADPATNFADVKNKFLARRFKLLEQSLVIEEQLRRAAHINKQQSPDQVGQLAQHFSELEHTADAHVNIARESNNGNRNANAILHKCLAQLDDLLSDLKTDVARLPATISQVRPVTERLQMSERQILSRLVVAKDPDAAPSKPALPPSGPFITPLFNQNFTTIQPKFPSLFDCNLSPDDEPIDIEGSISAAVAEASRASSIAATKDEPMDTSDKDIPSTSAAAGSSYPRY
UniProt O17695: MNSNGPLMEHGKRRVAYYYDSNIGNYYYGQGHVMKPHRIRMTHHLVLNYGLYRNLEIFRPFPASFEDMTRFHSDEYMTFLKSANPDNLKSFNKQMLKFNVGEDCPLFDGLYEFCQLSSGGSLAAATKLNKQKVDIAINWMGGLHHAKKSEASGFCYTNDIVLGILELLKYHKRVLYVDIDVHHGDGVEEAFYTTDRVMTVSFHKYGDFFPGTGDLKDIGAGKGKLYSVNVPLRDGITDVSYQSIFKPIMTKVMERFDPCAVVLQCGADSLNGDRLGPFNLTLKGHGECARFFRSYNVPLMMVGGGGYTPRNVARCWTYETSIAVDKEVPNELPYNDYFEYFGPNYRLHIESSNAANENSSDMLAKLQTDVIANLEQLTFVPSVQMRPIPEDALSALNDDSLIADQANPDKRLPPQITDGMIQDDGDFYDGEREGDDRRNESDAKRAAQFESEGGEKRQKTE
UniProt P41877: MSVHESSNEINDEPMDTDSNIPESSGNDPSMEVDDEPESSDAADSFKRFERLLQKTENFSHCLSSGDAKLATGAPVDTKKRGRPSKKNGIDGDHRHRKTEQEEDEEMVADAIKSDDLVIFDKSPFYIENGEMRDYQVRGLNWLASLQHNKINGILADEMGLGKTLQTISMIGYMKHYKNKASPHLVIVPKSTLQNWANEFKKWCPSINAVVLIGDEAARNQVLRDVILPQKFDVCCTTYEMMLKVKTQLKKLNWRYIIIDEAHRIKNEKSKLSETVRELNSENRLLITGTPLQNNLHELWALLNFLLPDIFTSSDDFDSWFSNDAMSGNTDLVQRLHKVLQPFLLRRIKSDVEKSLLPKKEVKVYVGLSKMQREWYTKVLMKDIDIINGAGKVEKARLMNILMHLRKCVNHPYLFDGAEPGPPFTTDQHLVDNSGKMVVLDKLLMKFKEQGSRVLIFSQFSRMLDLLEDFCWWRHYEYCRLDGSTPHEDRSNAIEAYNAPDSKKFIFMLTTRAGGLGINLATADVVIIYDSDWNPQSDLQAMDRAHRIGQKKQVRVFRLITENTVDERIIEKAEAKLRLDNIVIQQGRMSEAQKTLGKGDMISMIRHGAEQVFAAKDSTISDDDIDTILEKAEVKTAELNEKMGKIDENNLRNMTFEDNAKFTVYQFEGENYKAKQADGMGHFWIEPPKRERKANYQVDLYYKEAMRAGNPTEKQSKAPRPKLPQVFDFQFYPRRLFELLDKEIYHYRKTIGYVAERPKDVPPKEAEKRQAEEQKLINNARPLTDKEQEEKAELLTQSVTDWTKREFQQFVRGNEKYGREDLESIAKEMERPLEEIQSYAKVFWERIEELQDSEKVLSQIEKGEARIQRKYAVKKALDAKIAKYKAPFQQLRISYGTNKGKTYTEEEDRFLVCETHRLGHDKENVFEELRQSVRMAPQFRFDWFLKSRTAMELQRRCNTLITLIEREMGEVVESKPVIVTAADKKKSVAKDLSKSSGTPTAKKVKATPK
UniProt Q23482: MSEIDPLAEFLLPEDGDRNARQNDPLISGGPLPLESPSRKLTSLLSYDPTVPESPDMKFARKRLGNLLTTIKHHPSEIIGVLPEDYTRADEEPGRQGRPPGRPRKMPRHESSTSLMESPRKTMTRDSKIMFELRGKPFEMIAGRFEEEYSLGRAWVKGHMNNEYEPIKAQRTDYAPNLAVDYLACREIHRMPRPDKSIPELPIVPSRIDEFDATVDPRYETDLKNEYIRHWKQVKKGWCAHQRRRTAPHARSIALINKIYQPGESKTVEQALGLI
UniProt Q6BER5: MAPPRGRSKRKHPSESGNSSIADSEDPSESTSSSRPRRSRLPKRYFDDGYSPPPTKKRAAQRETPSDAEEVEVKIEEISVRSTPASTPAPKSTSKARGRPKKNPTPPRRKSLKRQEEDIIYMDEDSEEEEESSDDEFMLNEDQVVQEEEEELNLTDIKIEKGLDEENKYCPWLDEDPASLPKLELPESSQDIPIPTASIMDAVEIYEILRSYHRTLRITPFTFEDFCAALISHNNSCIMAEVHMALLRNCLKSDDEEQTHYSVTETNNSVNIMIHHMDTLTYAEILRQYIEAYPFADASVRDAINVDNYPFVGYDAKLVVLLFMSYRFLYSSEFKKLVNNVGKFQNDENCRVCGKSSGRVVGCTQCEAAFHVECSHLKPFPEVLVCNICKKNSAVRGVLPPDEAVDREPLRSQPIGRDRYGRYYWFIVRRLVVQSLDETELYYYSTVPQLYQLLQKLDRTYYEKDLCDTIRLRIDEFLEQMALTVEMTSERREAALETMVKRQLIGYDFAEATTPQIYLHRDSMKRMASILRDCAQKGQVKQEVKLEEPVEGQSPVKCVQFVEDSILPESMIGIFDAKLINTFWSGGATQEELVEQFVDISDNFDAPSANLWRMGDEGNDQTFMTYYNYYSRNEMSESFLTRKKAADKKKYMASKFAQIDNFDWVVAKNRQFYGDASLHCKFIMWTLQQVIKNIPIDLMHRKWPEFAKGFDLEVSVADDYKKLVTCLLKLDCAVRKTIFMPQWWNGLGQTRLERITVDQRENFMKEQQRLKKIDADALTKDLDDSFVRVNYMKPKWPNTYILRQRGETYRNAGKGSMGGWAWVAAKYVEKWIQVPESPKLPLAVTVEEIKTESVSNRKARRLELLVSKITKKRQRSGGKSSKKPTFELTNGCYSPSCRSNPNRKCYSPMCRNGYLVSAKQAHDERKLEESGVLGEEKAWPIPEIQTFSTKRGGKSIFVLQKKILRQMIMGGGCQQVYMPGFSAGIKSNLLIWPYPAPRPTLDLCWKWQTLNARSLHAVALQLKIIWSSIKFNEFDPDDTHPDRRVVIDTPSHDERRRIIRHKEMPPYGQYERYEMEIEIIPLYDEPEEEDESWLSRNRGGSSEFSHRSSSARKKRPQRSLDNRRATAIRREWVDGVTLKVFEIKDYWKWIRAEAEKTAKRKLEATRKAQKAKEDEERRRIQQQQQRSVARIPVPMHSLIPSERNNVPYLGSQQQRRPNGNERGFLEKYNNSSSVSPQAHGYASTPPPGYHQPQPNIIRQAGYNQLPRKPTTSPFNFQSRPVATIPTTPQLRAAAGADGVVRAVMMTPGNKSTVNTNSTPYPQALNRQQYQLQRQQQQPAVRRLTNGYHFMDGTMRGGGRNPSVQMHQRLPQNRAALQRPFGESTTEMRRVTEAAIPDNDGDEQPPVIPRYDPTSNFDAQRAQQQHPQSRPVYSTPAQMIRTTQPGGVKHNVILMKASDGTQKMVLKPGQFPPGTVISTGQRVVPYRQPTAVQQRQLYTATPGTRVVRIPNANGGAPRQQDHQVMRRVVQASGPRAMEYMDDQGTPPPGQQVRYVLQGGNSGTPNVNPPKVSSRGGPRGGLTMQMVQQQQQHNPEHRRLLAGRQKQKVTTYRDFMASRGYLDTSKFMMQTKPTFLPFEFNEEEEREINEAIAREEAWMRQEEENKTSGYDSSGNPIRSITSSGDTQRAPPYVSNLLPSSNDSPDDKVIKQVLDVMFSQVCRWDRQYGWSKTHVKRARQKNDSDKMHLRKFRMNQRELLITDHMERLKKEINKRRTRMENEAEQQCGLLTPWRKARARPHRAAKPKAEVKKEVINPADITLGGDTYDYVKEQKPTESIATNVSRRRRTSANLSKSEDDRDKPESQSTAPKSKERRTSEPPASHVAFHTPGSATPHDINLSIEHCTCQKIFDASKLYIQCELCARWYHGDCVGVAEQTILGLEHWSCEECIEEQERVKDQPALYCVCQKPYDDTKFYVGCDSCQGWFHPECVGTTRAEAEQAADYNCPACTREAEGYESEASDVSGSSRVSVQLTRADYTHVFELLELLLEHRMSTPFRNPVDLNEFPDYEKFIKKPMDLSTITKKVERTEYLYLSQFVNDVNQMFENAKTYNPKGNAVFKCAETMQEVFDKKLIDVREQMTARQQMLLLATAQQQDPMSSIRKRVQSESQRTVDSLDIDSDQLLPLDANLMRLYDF

How the values were obtained:
LIN-53::TAP (C. elegans) [1] = target: LIN-53::TAP (C. elegans) (UniProt P90916); assay: affinity purification with mass spectrometry; tandem affinity purification of LIN-53::TAP from worm extract in PEB buffer (50 mM HEPES pH 7.2, 150 mM KCl, 20% glycerol, 0.3% NP-40); eluates identified by LC/MS/MS
LIN-53::TAP (C. elegans) [2] = target: LIN-53::TAP (C. elegans) (UniProt P90916); assay: as above; remark: listed apart in the source

| Molecule | binding (LIN-53::TAP (C. elegans) [1]) | binding (LIN-53::TAP (C. elegans) [2]) |
| --- | --- | --- |
| CHD-3 (from UniProt Q22516 1-1787) | binds | – |
| HDA-1 (from UniProt O17695 1-461) | binds | – |
| ISW-1 (from UniProt P41877 1-1009) | binds | – |
| LET-418 (from UniProt G5EBZ4 1-1829) | binds | – |
| LIN-37 (from UniProt Q23482) | binds | – |
| NURF-1 (from UniProt Q6BER5 1-2194) | binds | – |
| LIN-59 (protein, UniProt O44757 1-1312) MHGAGEQQQRYRYNARSDEQHHHPSTSSHQYQQQGARQMHQMHPIQATLMCTPTTTSAAASTSSSGGSNSSGGSGGHRQQGNILRIGNSIKIGDNILEPAGTLVFSQADGTPWTGQRIVVNGSTHAVVKANLFPIGTTPPVLNMQSNQNWYMNQPSGTVPMSSNAPATTSSATPDSGIQSVPTSPPSPSYAMMNDVDIGDHDDEEDDDGPADFTDMPLLKPVDEDDDCYDVPCTSEGPPPNNSNPAITTIPSSCSTPAPPKESLPTGMNVEEWGSFLIASNMDREEIVRRLMAHDPEMAKAIAMRIRELSAEESKKKKDMEAEVSSTTPTTPRARGTRTRNKCATRSTNSPDVTTSNLPEEPSTSTMGLVKENEDVEKVEGKRRGRKPKKRRGFHKESFEDLESDAKKSKAEQHEDHLPEASCSSRPESVIPPPVDPIQFRLKVREMMERKLEQLTQKMSEDMTELRLSHLTSSKMVNGERGKRRESFLRQLNEQSKKLRKGGMLGRKRLRMFMTESDILEENKDNIKKEVKEESTPPPTKLRGRLPSRRTREPSEIVNPEPVEKKFNGEYFEITKSVPSSDDIIPLWMAPSLTCGCTKGACTSDMDCLNRALRVQCSSDCSVPYCSNRRFWKEDCGNKLCVSNGPRSKRVLKTKIARRAGEFLCEYAGEVITREQAQEKFAQDRDPRIIAIAAHLFVDATKRSNIARFIKHSCKPNSRLEVWSVNGFYRAGVFALSDLNPNAEITVDKSDLLPFDMACNCGATECKRVIRGVRWRCADPNEKIVTRRFVIRNRRKTIERSSHSGLPAILQTPMDENSSIRLKMKQVLAAFAFRVRKIDGSMSRTMLPHYTLIIKFLKTKGNNPNPVEFVSLFRKWLEAIDDDDLERAFVAIESHYMSSSILSSSLQSKKAKDNAPRARALSTSCPSPVPSKRGDADLSYLESLYPIGSYDPDDAWESYSTNKKGNAVRCICGALDEEGTMVQCDTCHFWLHVDCCQYVVRSNEKAQKSKNPPSDDGEYICDFCTNKQNGLRPSADVKLTEQPDVRFENCDYYRSLINRRGIQVVLNETVYVNRVLPEDHKAMLRNLREEKKGSKQKDTNKYRFPKAATSPLPIEKVDRKNARIFRVERLFVCPGNNRFVFGSFYAWPHETYADAGRVFSKKEVFATPYYETLPLDEVIGRCLVLDTATWCKGRPKVPKFKEDDVFLCEMQIGKTQRVFEKVPPKNRYPINTNSYVFTEFTHPKKVVRDFRPYDPSNPSPKPPKTSSIPSTSSIDPPQSSSDGLPEVDTKKLSKRHIQRVLKRLVKNGSRRS | – | binds |
| LIN-9 (protein, UniProt P30630 1-644) MSSAVRSPRKKAASDTSDPDRTSSPYSLRETSKVPSRYRNEELYLSPSRSIKRTGSPKKSPAKRLNGGRDSPSVNSLTRNSSLTMLAKAALDYESSSCALEYIFQPKEERRPPRRALALSPPPAPSNDLLAKDLEMIEMHQNLVAGLDDLDNPANMTNEAVEHRDTQSFFNMFSTDQERSAMMKQFKTYKNQTSEDVSTFMRANIKKLYNLLRYKKARQWVMCEFFYSAIDEQIFKEENEFATIIRESFPNLKNWNLTRIEWRSIRKLLGKPRRCSKVFFEEERMYLEEKRMKIRSVYEGSYLNDPSIDLKDLPAKLPRPMVVGNRVFARIRNPYDGIYSGIIDAVIPKGFRIIFDKPDIPPTLVSDTEILLDGKLDLLSIAYFIEQANSKLPSGVRPFVAAVRDSSHPHLVRDVLVSRKIERSGGPLMGPNDERLNGKNAEMVGNFPLKFLVNLVKLTKLIDIKKGLIRQLNELNADAEIQNMTSDKYSKAFQEKYAKTIIDLEHVNQNIDINMNGIQDHHMYFSSNDISTSNMKPEAVRQMCSQQAGRFVEHCNQGLNVENVHALTLIQSLTAVLLQVRTMGTQKISAVDLQSLGDAISEIRTAIHPRNVAFFQDYVEVHMKQFHTIMLESGALAGTVSNRK | – | binds |
| CPSF-1 (protein, UniProt Q9N4C2 1-1454) MYGYLRETDDSTAINFSAYGKFLPGENTGFQLLTIGAKFIRIFRVNPYVLKEPGEDNEEWQQKTKLECMFSCRLLNKCHSIAVARVPQLPDQDSILMTFDDAKLSIVSINEKERNMQTISLHAFENEYLRDGFINHFQPPLVRSDPSNRCAACLVYGKHIAILPFHENSKRIHSYVIPLKQIDPRLDNIADMVFLDGYYEPTILFLYEPIQTTPGRACVRYDTMCIMGVSVNIVDRQFAVVWQTANLPMDCSQLLPIPKPLGGALVFGSNTVVYLNQAVPPCGLVLNSCYDGFTKFPLKDLKHLKMTLDCSTSVYMEDGRIAVGSRDGDLFLLRLMTSSGGGTVKSLEFSKVYETSIAYSLTVCAPGHLFVGSRLGDSQLLEYTLLKTTRDCAVKRLKIDNKDPAAAEIELDEDDMELYGGAIEEQQNDDDEQIDESLQFRELDRLRNVGPVKSMCVGRPNYMSNDLVDAKRRDPVFDLVTASGHGKNGALCVHQRSLRPEIITSSLLEGAEQLWAVGRKENESHKYLIVSRVRSTLILELGEELVELEEQLFVTGEPTVAAGELSQGALAVQVTSTCIALVTDGQQMQEVHIDSNFPVIQASIVDPYVALLTQNGRLLLYELVMEPYVQLREVDISATSFATWHATAQNLTQLTSISIYADASEIMKFAAAEKSMGGGGGGDGEVSTAENAMMKKEQHEEAILLHGEDDDFLYGDEDETIMEQNFPVENGEATIKQSNTRKRKRLGHDAIQSSRGGEQSDAIDPTRTFSSISHWLIVSHENGRLSIHSLPEMEVVYQIGRFSNVPELLVDLTVEEEEKERKAKAQQAAKEASVPTDEAEQLNTEMKQLCERVLEAQIVGMGINQAHPILMAIVDEQVVLYEMFSSSNPIPGHLGISFRKLPHFICLRTSSHLNSDGKRAPFEMKINNGKRFSLIHPFERVSSVNNGVMIVGAVPTLLVYGAWGGMQTHQMTVDGPIKAFTPFNNENVLHGIVYMTQHKSELRIARMHPDFDYEMPYPVKKIEVGRTIHHVRYLMNSDVYAVVSSIPKPSNKIWVVMNDDKQEEIHEKDENFVLPAPPKYTLNLFSSQDWAAVPNTEISFEDMEAVTACEDVALKSESTISGLETLLAMGTVNNYGEEVLVRGRIILCEVIEVVPEPDQPTSNRKIKVLFDKEQKGPVTGLCAINGLLLCGMGQKVFIWQFKDNDLMGISFLDMHYYVYQLHSLRTIAIACDARESMSLIRFQEDNKAMSIASRDDRKCAQPPMASQLVVDGAHVGFLLSDETGNITMFNYAPEAPESNGGERLTVRAAINIGTNINAFVRLRGHTSLLQLNNEDEKEAIEQRMTTVFASLDGSFGFVRPLTEKSYRRLHFLQTFIGSVTPQIAGLHIKGSRSAKPSQPIVNGRNARNLIDGDVVEQYLHLSLYDKTDLARRLGVGRYHIIDDLMQLRRMAFYY | – | binds |
| EGL-27 (protein, UniProt Q09228 1-1129) MSRFDSQCSSEDVNKEDECVPSSSEDSQDGVSSPMENDDEPEFSQKHYDIEPCYYSLTGKSDRNCRGIVYRYRQDSDLKGFQSHDGTLYRLRDSVFVEVSQNEPYVIAAICGFKYTKRDHVVVKLTRYFRADDIPEISLNLMKQERAELEINPHLCPQSLNRELFNSELQITQPVSCLRGKCIVEYVKDVRHARTVADFSLDNDTFFFCLHYNQDSTKLASTHYAIRVGTSFQATLPPMAECSVGDDSDRDELLYRPNSIESGEEEDYIKLARCYRTYTLSGNHMLDSQKNARSLQVSDLLMDEAIIQLHRSGYKIDDALSELNANDIILTTDVDNMTQDDAKKFAKGIKQLGKNFSRIHRELLPHHSREQLVSYYYLWKKTPEATKPKQAARRVNPTSIKRPTKEKVKASRPTSTEYLDFDSASESDVENNGPSGRACHHCYGAESKDWHHANGLLLCTDCRLHYKKYGQLRQIANRPSQVPACLFKRSNSDEEESGVRTRAGKKEQRRRTPSSMSETPDRRSPSTVSNGAPNLTAEETPTKKLNGSVKRAPKRPLHNGVINNVEKSNSSEEPASPTTPPPTLTNGLTNGHGPESSTPNGETISKRMKVEPSYDDDDDEEEGKMTIDEGDDDPMPVLNGFKKEESVEEIKLELNGTIKKENGVETDPTTPTCSMEAENEVCETPAVVSVEIRDETNGETNSDLKDDENVEPDSPEDTFELGSNVEFETKNAMFVRSIVRSCGPRCARTDLIFKIKVGGVWEKSIKEKEERKKVHLQNQRIQDSEKVAIQQNQIKKEQQQSQPTPQQIHQQQAQQNAQHLQQLQQAVMLGHLPPEVLRQMMPPQFGVDPTAILMQQMMAGQQSQGVNAAFQHQMALQQQLEAHQVQFQLMMAHQHQQKMIAEQQQQQRHAAAQQLREREQREQRERERERQHQQQAQQALHQQQQQHAAAAANQLNPAMMQMMALMANSAASQQDIARLMEMAAQQQQQQQQAAQAQAQRDQERERREREAREREAAREREREQAAREAAARDQAAREHAQAVQAAAAAAQQAQALTPDMQHMHLLQQLMLNPALMMQLQQAQAQQQQQQPQVTNPLQMLQHGMAAQSANQAEMMRRIHPEPAMRPQHQ | – | no binding |
| RBA-1 (protein, UniProt P90917 1-412) MSEAESCEETSKEHRIWKKNVPYLYDTVVTKEVEWPSLSVQWMPDVTKTENSDSSMHRMIHGTHTCGGVQNHLMISKFTITTDTPEFDDAKWDSEREEFGGYGEGSAAKWDTEIKINHPGEVHRARYMPHNPFIIASRGPSDDVYIFDYTKHPSEPKDTKFRPQLRLKGHEGEGYGMSWSNTREGHLLTAGDDGMICHWDINANQTISGQIVPQSKFKGHSSNAEDVSFHALHNFVFGSVGDDRKLNLWDLRQSKPQLTAVGHTAEVNCITFNPFSEYILATGSVDKTVALWDMRNMRKKMYTLKHHNDEIFQVSFSPHYETVLASSGSDDRVIVWDISKIQDPSSSSAASSDSVPPEVIFIHAGHTGKVADFSWNPNRPWTICSSDEFNALQVWEVSNSLVSSEKWETEMI | – | no binding |
